± gives the uncertainty stated by the source. Many of these values have a large error.
Experiment: self-splicing fitness, log relative to wild type (ln ratio); higher = more splicing; Tetrahymena group I intron in knt gene, E. coli kanamycin selection, DiMSum; sequences stand for … in CUCUCU…GGAGGGAAAAGUUAUCAGGCAUGCACCUGGUAGCUAGUCUUUAAACCAAUAGAUUGCAUCGGUUUAAAAGGCAAGACCGUCAAAUUGCGGGAAAGGGGUCAACAGCCGUUCAGUACCAAGUCUCAGGGGAAACUUUGAGAUGGCCUUGCAAAGGGUAUGGUAAUAAGCUGACGGACAUGGUCCUAACCACGCAGCCAAGUCCUAAGUCAACAGAUCUUCUGUUGAUAUGGAUGCAGUUCACAGACUAAAUGUCGGUCGGGGAAGAUGUAUUCUUCUCAUAAGAUAUAGUCGGACCUCUCCUUAAUGGGAGCUAGCGGAUGAAGUGAUGCAACACUGGAGCCGCUGGGAACUAAUUUGUAUGCGAAAGUAUAUUGAUUAGUUUUGGAGUACUCGUGGUCG
Summary of the method: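 Pooled colonies went to amplicon sequencing on an Illumina HiSeq 2500 after six replicate transformations. The plates were LB agar with 100 μg/mL carbenicillin, 50 μM IPTG and 0.2% rhamnose, with or without 25 μg/mL kanamycin, incubated overnight at 37°C or 30°C. The E. coli BL21(DE3) library had all eight P1ex-region intron nucleotides randomised, the intron placed in the knt kanamycin-resistance gene on pET-22b(+). DiMSum fitness is the error-weighted combination of replicate fold changes, kanamycin against none, normalised to wild type.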

Row | Sequence | self-splicing fitness (ln) (30 °C) | self-splicing fitness (ln) (37 °C)
1 | GUGCAGCAAUAUUACGGUUA | -0.723 ± 0.092 | -0.164 ± 0.089
2 | UCAAAGCAAUAUUACGGUCC | -1.82 ± 0.53 | -2.73 ± 0.61
3 | AUGUAGCAAUAUUACGAUAU | -0.909 ± 0.11 | 0.222 ± 0.14
4 | AGGGAGCAAUAUUACGGCAC | -3.85 ± 0.61 | 
5 | GUGGAGCAAUAUUACGCGAG | -3.18 ± 0.61 | 
6 | AAUGAGCAAUAUUACGUCAG | -1.81 ± 0.45 | -2.32 ± 0.42
7 | ACUUAGCAAUAUUACGAGAC |  | -2.59 ± 0.54
8 | CCCUAGCAAUAUUACGAACC | -4.55 ± 0.72 | 
9 | UUAUAGCAAUAUUACGGCCG | -0.763 ± 0.48 | -0.565 ± 0.37
10 | UCAUAGCAAUAUUACGCACU | -3.19 ± 0.25 | -3.18 ± 0.32
11 | GUUUAGCAAUAUUACGGGGC |  | -3.91 ± 1
12 | CGUGAGCAAUAUUACGCCUU | -3.66 ± 1 | 
13 | GGAUAGCAAUAUUACGGUCC | -2.78 ± 0.51 | 
14 | CGGUAGCAAUAUUACGCCCG | -3.27 ± 0.54 | -1.39 ± 1.2
15 | CCGUAGCAAUAUUACGACGC | -4.24 ± 0.6 | 
16 | GGAGAGCAAUAUUACGAUAG | -4.38 ± 0.73 | 
17 | UCAAAGCAAUAUUACGCAUU | -3.2 ± 0.4 | -3.34 ± 0.37
18 | GCCGAGCAAUAUUACGCAAA | -2.02 ± 1.2 | 
19 | CUAAAGCAAUAUUACGCCCC |  | -0.234 ± 1.4
20 | GGGUAGCAAUAUUACGUUCC | -3 ± 0.55 | 
21 | AAUAAGCAAUAUUACGUGAG | -0.815 ± 0.065 | -0.198 ± 0.093

Quoted at random: three records from the list, in no set order.
Row | Sequence | self-splicing fitness (ln) (30 °C) | self-splicing fitness (ln) (37 °C)
20 | GGGUAGCAAUAUUACGUUCC | -3 ± 0.55 | 
10 | UCAUAGCAAUAUUACGCACU | -3.19 ± 0.25 | -3.18 ± 0.32
6 | AAUGAGCAAUAUUACGUCAG | -1.81 ± 0.45 | -2.32 ± 0.42

The results go on.

Row | Sequence | self-splicing fitness (ln) (30 °C) | self-splicing fitness (ln) (37 °C)
22 | CGGAAGCAAUAUUACGCAUC | -3.66 ± 1 | -3.11 ± 0.61
23 | UUGCAGCAAUAUUACGUCAC | -2.71 ± 0.55 | 
24 | CGGGAGCAAUAUUACGCGCG | -1.27 ± 1.4 | 
25 | GGGGAGCAAUAUUACGCCCG | -1.97 ± 1.2 | -1.13 ± 1.2
26 | GAACAGCAAUAUUACGGUCG | -1.17 ± 0.069 | -0.372 ± 0.098
27 | AGCAAGCAAUAUUACGGGGA | -2.7 ± 0.14 | -2.1 ± 0.14
28 | CUAGAGCAAUAUUACGGUUU |  | -4.09 ± 0.51
29 | CUUUAGCAAUAUUACGCUGA |  | -2.7 ± 0.55
30 | UCGGAGCAAUAUUACGUGUC | -3.23 ± 0.74 | 
31 | GGAAAGCAAUAUUACGCCGG | -3.27 ± 0.53 | 
32 | UGCGAGCAAUAUUACGCCUC |  | -2.48 ± 1.1
33 | UGUGAGCAAUAUUACGAUCU | -1.57 ± 0.15 | -0.175 ± 0.14
34 | AAGGAGCAAUAUUACGCUAG |  | -2.89 ± 0.54
35 | CAAGAGCAAUAUUACGGAUA | -2.87 ± 0.23 | -2.32 ± 0.29
36 | CUUUAGCAAUAUUACGACGA | -3.83 ± 0.72 | 
37 | AAGUAGCAAUAUUACGCUAC | -1.52 ± 0.71 | -2.47 ± 0.63
38 | GCGGAGCAAUAUUACGGCUC |  | -1.58 ± 0.54
39 | ACGGAGCAAUAUUACGCAGC |  | -3.59 ± 0.73
40 | GAUUAGCAAUAUUACGCUCC | -2.16 ± 0.54 | 
41 | AAGGAGCAAUAUUACGGAUC | -2.64 ± 0.36 | 

Source: the supplement of paper PMC7877785
